The values that follow come from paper PMC8395886, “Square-Planar vs. Trigonal Bipyramidal Geometry in Pt(II) Complexes Containing Triazole-Based Glucose Ligands as Potential Anticancer Agents” (International Journal of Molecular Sciences, 2021).

This data set in a line: Reactivity with L-methionine (1H-NMR). The settings on record: 2.5 eq methionine, 9:1 v/v D2O (PBS, pH 7.4):DMSO-d6, 37 °C, within 48 h.

As for `CC(=O)OC[C@H]1O[C@@H](n2cc(-c3ccc[n+]([Pt-2]4([CH3])[n+]5cccc6ccc7ccc[n+]4c7c65)c3)nn2)[C@H](OC(C)=O)[C@@H](OC(C)=O)[C@@H]1OC(C)=O.O=S(=O)([O-])C(F)(F)F` [4Pt-py], the Coordination of methionine entry is “no sign of coordination of methionine”.

As to `CC(=O)OC[C@H]1O[C@@H](n2cc(-c3c[n+]([Pt-2]4([CH3])[n+]5cccc6ccc7ccc[n+]4c7c65)cn3C)nn2)[C@H](OC(C)=O)[C@@H](OC(C)=O)[C@@H]1OC(C)=O.O=S(=O)([O-])C(F)(F)F` [4Pt-im], the Coordination of methionine result is on record as “no sign of coordination of methionine”.
